PubChem BioAssay AID652243, Drosophila RNAi Screening Center – 2013

Assay: 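Fly regulators of androgen-dependent reporter output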 (primary screen)
Cells: Drosophila S2R+ cells
Reagent: long dsRNA against Drosophila genes
Timing: 72 h (48 h, then 24 h hormone)
Treatment: synthetic androgen R1881 at 10 nM for 24 h
Measurement: 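Firefly light from an androgen-responsive reporter and Renilla control light per well, raw and unnormalised, for each of two replicates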
Direction: firefly reporter light: higher = more light from androgen-responsive reporter; Renilla control light: higher = more constitutive control signal (cell number, transfection)
Call rule: 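Across duplicate plates, a knock-down whose log firefly/Renilla ratio shifted a set fold down or up from the GFP/LacZ control mean was a hit; the downward cut appears as both 1.5 and 3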
Calls: active = hit: reporter lowered or raised; inactive = no hit
The deposit covers about 24,000 reagents; shown is a random part of those with a known target gene and a result. Of all reagents, 246 (1%) were called active. 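Plates not normalised; calls are printed but the firefly/Renilla ratio behind them is not deposited; fold cut for lowering reported inconsistently.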 The raw values are shown without normalisation. A plus sign joins genes that one reagent is predicted to hit. No sequences are given here. Not given: the amount of reagent.

Gene	amplicon	firefly reporter light, replicate 1	firefly reporter light, replicate 2	Renilla control light, replicate 1	Renilla control light, replicate 2	activity call
sdt (stardust)	DRSC17555	6.12e5	6.04e5	1.06e6	9.96e5	inactive
sdt (stardust)	DRSC17556	6.91e5	7.16e5	9.14e5	1.02e6	inactive
sdt (stardust)	DRSC17860	5.06e5	5.32e5	2.42e6	3.72e6	inactive
sdt (stardust)	DRSC17861	2.54e5	4.26e5	3.15e6	4.40e6	inactive
sdt (stardust)	DRSC18022	2.89e5	4.15e5	2.36e6	3.56e6	inactive
sdt (stardust)	DRSC18108	2.87e5	3.77e5	3.35e6	2.80e6	inactive
sdt (stardust)	DRSC26851	3.97e5	3.82e5	1.06e6	8.67e5	inactive
CG42335	DRSC14597	2.00e5	2.04e5	4.89e6	3.35e6	inactive
CG42335	DRSC15892	2.23e5	3.23e5	3.28e6	3.88e6	inactive
CG42335	DRSC25666	6.62e5	8.06e5	7.39e5	5.73e5	inactive
Hsc70-4 (Heat shock protein 70 cognate 4)	DRSC16711	2.38e5	1.45e5	1.69e6	1.61e6	inactive
Hsc70-4 (Heat shock protein 70 cognate 4)	DRSC29729	3.75e5	3.13e5	1.26e6	1.16e6	inactive
CG11404	DRSC11656	2.84e5	2.33e5	2.08e6	2.18e6	inactive
CG11404	DRSC27005	3.94e5	3.60e5	5.88e5	7.15e5	inactive
Nlg1 (Neuroligin 1)	DRSC12485	2.56e5	2.75e5	3.60e5	2.96e5	inactive
Nlg1 (Neuroligin 1)	DRSC12532	88484	96875	2.96e6	2.43e6	inactive
Nlg1 (Neuroligin 1)	DRSC12533	1.08e5	73325	1.72e6	1.69e6	inactive
Nlg1 (Neuroligin 1)	DRSC12539	88862	95339	1.58e6	1.64e6	inactive
RpL41 (Ribosomal protein L41)	DRSC22958	6.53e5	1.35e6	8.45e5	1.91e6	inactive
Sems (Seminase)	DRSC11626	3.80e5	2.43e5	3.69e6	2.42e6	inactive
Sems (Seminase)	DRSC25887	5.46e5	4.97e5	1.26e6	1.12e6	inactive
Jupiter	DRSC15204	59612	86207	5.29e5	6.09e5	inactive
Jupiter	DRSC15205	1.51e5	98760	2.55e6	2.42e6	inactive
Jupiter	DRSC15389	96870	91755	2.40e6	1.96e6	inactive
CG7194	DRSC10784	1.64e5	1.68e5	1.54e6	1.31e6	inactive
CG12547	DRSC07759	85528	1.69e5	1.14e6	1.64e6	inactive
CG2993	DRSC14284	1.39e5	99366	2.39e6	2.07e6	inactive
CG2993	DRSC15457	24645	16200	2.92e5	3.68e5	inactive
CG2993	DRSC29995	5.56e5	5.76e5	1.22e6	1.39e6	inactive
Plc21C (Phospholipase C at 21C)	DRSC00773	9.32e5	8.49e5	3.55e6	2.17e6	inactive
CG34437	DRSC38641	8.25e5	7.32e5	1.63e6	1.38e6	inactive
CG6294 + CG6299	DRSC19980	4.52e5	6.13e5	3.45e6	2.78e6	inactive
CG6294 + CG6299	DRSC27443	3.89e5	2.89e5	7.73e5	7.40e5	inactive
CG14069	DRSC02372	2.49e5	2.66e5	2.25e6	2.78e6	inactive
CG15306	DRSC17993	3.06e5	3.85e5	2.51e6	3.52e6	inactive
CG15306	DRSC18240	3.91e5	4.70e5	2.24e6	2.93e6	inactive
CG15306	DRSC29972	4.12e5	4.07e5	7.10e5	6.23e5	inactive
CG10226	DRSC09715	1.05e6	8.42e5	9.90e5	1.16e6	inactive
Alp12 (Alkaline phosphatase 12)	DRSC02515	2.20e5	2.48e5	1.85e6	2.25e6	inactive
Alp12 (Alkaline phosphatase 12)	DRSC36850					inactive
CG32111 (retired record)	DRSC09203	3.13e5	3.48e5	5.85e5	4.72e5	inactive
car (carnation)	DRSC20316	1.03e5	87498	7.47e5	6.50e5	inactive
car (carnation)	DRSC26230	3.15e5	4.11e5	8.98e5	6.60e5	inactive
CG30172	DRSC21519	6.50e5	5.58e5	3.13e6	2.38e6	inactive
CG30172	DRSC30069	8.88e5	5.57e5	1.38e6	9.06e5	inactive
CG34274	DRSC38657	9.58e5	7.02e5	2.26e6	2.49e6	inactive
CG15082	DRSC06513	1.00e5	1.17e5	1.22e6	1.67e6	inactive
CG15082	DRSC27197	5.22e5	3.63e5	6.50e5	5.98e5	inactive
CG3841	DRSC02730	2.13e5	1.30e5	1.60e6	1.41e6	inactive
salt (salty dog)	DRSC15427	56549	60519	6.09e5	4.62e5	inactive
salt (salty dog)	DRSC25514	7.58e5	5.36e5	6.93e5	7.95e5	inactive
CG31663	DRSC00078	2.49e5	2.83e5	4.78e5	4.52e5	inactive
CG31663	DRSC00389	1.23e6	1.46e6	3.98e6	3.44e6	inactive
CG31663	DRSC00390	7.85e5	7.53e5	3.55e6	3.63e6	inactive
CG31663	DRSC00393	1.01e5	1.69e5	6.85e5	1.01e6	inactive
PH4alphaEFB (prolyl-4-hydroxylase-alpha EFB)	DRSC14473	60891	58660	6.60e5	4.40e5	inactive
PH4alphaEFB (prolyl-4-hydroxylase-alpha EFB)	DRSC14950	1.34e5	1.94e5	1.55e6	2.10e6	inactive
Krn (Keren)	DRSC11202	3.53e5	3.21e5	1.23e6	1.58e6	inactive
CG7239	DRSC23113	6.76e5	6.98e5	2.41e6	2.38e6	inactive
Alp10 (Alkaline phosphatase 10)	DRSC09749	1.61e5	81910	1.99e6	1.34e6	inactive
Alp10 (Alkaline phosphatase 10)	DRSC29230	5.17e5	4.63e5	1.41e6	1.29e6	inactive
CG10559	DRSC14255	2.32e5	3.67e5	2.83e6	2.72e6	inactive
CG10559	DRSC29876	4.73e5	4.08e5	1.04e6	1.13e6	inactive
Kr (Kruppel)	DRSC04622	2.55e5	2.04e5	1.26e6	7.70e5	inactive
CG34282	DRSC16298	2.61e5	3.68e5	3.07e6	3.10e6	inactive
CG11123	DRSC06040	2.45e5	3.21e5	1.76e6	1.52e6	inactive
CG11123	DRSC28420	3.23e5	6.45e5	4.24e5	1.31e6	inactive
His2B:CG33894 + His2B:CG33872 + His2B:CG33902 + 20 more	DRSC21265	1.04e5	1.21e5	90491	81099	inactive
Cap-G (Chromosome associated protein G)	DRSC06652	3.99e5	3.38e5	1.98e6	2.28e6	inactive
Cap-G (Chromosome associated protein G)	DRSC06653	1.85e5	1.26e5	1.10e6	8.27e5	inactive
Cap-G (Chromosome associated protein G)	DRSC21805	5.24e5	3.50e5	3.38e6	3.40e6	inactive
Jhbp16 (Juvenile hormone binding protein 16)	DRSC15039	2.68e5	2.80e5	2.11e6	2.77e6	inactive
CG32109	DRSC09816	3.02e5	2.09e5	3.29e6	2.32e6	inactive
RpS16 (Ribosomal protein S16)	DRSC04442	2.61e5	4.08e5	1.30e6	1.68e6	inactive
RpS16 (Ribosomal protein S16)	DRSC29812	4.82e5	3.27e5	1.04e6	9.37e5	inactive

Single entries from above:
salt (salty dog) [DRSC25514], firefly reporter light, replicate 2 → 5.36e5
PH4alphaEFB (prolyl-4-hydroxylase-alpha EFB) [DRSC14473], firefly reporter light, replicate 1: 60891
Value for CG6294 + CG6299 [DRSC19980] under “firefly reporter light, replicate 1”: 4.52e5
Result of Nlg1 (Neuroligin 1) [DRSC12533] under “firefly reporter light, replicate 2”: 73325
Entry of salt (salty dog) [DRSC15427] under “Renilla control light, replicate 2”: 4.62e5
Alp12 (Alkaline phosphatase 12) [DRSC02515], Renilla control light, replicate 1 → 1.85e6
